From PubChem BioAssay AID1794845 (National Center for Advancing Translational Sciences (NCATS), 2023)
In all, about 6,900 compounds went through this assay and fewer than 10 were called active. Calls come from the whole dose curve; as a rule, active = well fitted curve in the direction sought with a large enough effect; inconclusive = small, poorly fitted or top-dose-only effect, or another doubt; inactive = no such curve, though single readings can be large or run the other way. The list shows a part of the results.

Protein sequences, listed by entry. Tags and fused reporters are not part of them. Lines headed by an entry give the natural chain unless they say otherwise; changes in a name come on top.
UniProt C7C422: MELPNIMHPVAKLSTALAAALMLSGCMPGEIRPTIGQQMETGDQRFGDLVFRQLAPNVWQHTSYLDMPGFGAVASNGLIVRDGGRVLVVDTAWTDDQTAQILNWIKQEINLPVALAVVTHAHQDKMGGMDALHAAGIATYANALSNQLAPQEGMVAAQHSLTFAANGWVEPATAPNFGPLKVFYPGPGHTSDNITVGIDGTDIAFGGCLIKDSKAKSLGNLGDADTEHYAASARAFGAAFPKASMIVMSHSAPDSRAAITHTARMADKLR

Target: Metallo-beta-lactamase type 2 (Klebsiella pneumoniae) (UniProt C7C422)
Test: qHTS to identify inhibitors of the New Delhi Metallo-beta-lactamase (NDM): primary screen against the NCATS Gemini Collection; note: % of control where 0% means no effect
Details: NDM-1 enzyme, meropenem hydrolysis, absorbance 300 nm; at 38.4 µM (top of the series) unless noted
Method in brief: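 Meropenem hydrolysis (50 uM final) by 2 nM NDM-1 read as 300 nm absorbance after 30 min, following >30 min compound–enzyme preincubation in HEPES pH 7.0 with 1 uM ZnSO4 and 0.01% Tween20.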

Activity % (negative = inhibition), inactive:
Cc1cn2nc(C(=O)N3CCN(C(=O)c4ccco4)CC3)cc2c(N2CCCC2)n1 40.3%
CN(CC(=O)N1CCC2(CCNCC2)CC1)Cc1cccnc1 21%
COCCN1C(=O)CCc2cc(NC(=O)c3ccc(Cl)s3)ccc21 17.2%
COCCN1Cc2ccc(NCC(C)C)nc2C(C)(C(=O)NC2CCC2)C1 (stereo unspecified) 3.5% [at 57.5 µM]
CCCS(=O)(=O)N1C[C@@H](Oc2ccccc2)C[C@@H]1C(=O)NCCOC 0.032%
Cc1ccc([S+](=O)([O-])NCCNC(=O)c2ccc(-c3cccc(C(F)(F)F)c3)cc2)cc1 -3.31%
Cc1cc(F)ccc1S(=O)(=O)N1C[C@H](C2CC2)[C@@H](N)C1 -2.34%
O=C(N[C@H]1CCN2C(=O)c3cc(-c4ccc(Cl)cc4)ccc3NC(=O)[C@H]12)C1CCCC1 2.11%
CCn1c2c(c(=O)n1-c1ccccc1)CCN(Cc1ncccn1)C2 44.5% [at 57.5 µM]
O=C(NCC1CC1)c1cccc(OC2CN(Cc3cc4ccccc4nc3Cl)C2)c1 13.3%
O=C(Cc1ccccc1F)N1CC2CC(C1)[C@H]1CCCC(=O)N1C2 (stereo partly specified) -3.81%
Cc1ccc(C(C(=O)O)N2CCC(CCN3CCCC3=O)CC2)cc1C (stereo unspecified) 0.203%
COc1cccc(CN2CCCC3(CCN(C(=O)c4cnc(C)cn4)C3)C2)c1 (stereo unspecified) -12.3%
Cc1nnc2n1CCC(NC(=O)CCCc1c[nH]c3ccccc13)CC2 (stereo unspecified) 2.08%
CCc1ncc(-c2c(-c3ccccc3)ncn2CCCOc2cccnc2)cn1 56.7%
CCCN(CCC)C(=O)c1coc(COc2ccc3sc(C)nc3c2)n1 0.676%
CCCn1cnc2c1CN(S(=O)(=O)c1ccc(F)cc1)[C@H](C(=O)OC)C2 2.26% [at 57.5 µM]
CCOCCN1C(=O)COC[C@@H]1[C@H](O)c1ccc(NC(=O)c2cccc(C#N)c2)cc1 5.93% [at 57.5 µM]
O=C(NC1CCCC1)N1CCCC(Cn2cnc3cccnc32)C1 (stereo unspecified) 26.6%
CN(CCOc1cccc(Cl)c1)C(=O)c1cccc(CCC(C)(C)O)c1 6.5%
COc1ccc(OC)c(CN2CCC3(CC2)Nc2ccccc2NC3=O)c1 0.719%
Cc1nn(C)c(C)c1NC(=O)CC[C@H]1NC(=O)c2ccccc2NC1=O 36.7%
CSCC(=O)N[C@H]1CCN2C(=O)c3ccc(Cl)cc3NC(=O)[C@@H]2C1 1.45% [at 57.5 µM]
CCOCCOC1CCN(C(=O)c2cccc3[nH]ccc23)CC1 5.83%
COCCN1CCC2(CCC1=O)CN(C(=O)NC(C)C)CCN2C (stereo unspecified) -3%
COc1cccc(CN2CCNC(=O)C2CC(=O)N2CCNC(=O)C2)c1OC (stereo unspecified) -0.189%
O=C(c1cn2ccccc2n1)N1C[C@@H](CO)[C@H](c2ccccn2)C1 5.31%
O=S(=O)(NC[C@H]1O[C@@H](CO)[C@@H](O)[C@H]1N1CCN(c2ccc(F)cc2)CC1)c1ccc(F)cc1 1.36%
CCCN1C[C@@H](CO)[C@H](c2nc(CCOC)no2)C1 -0.261%
COc1cccc(-c2cc(CC3(O)CCN(c4nnc(C)o4)CC3)on2)c1 -5.45%
COc1ccc(Nc2ccc3c(n2)CN(Cc2ccccc2C)C(=O)CO3)cc1 11.6% [at 57.5 µM]
CC(C)=CCN1Cc2ccccc2NC(=O)C12CCNC2 (stereo unspecified) 4.99% [at 57.5 µM]
O=C(NCCc1ccccc1)C1CCC(=O)N(CCCN2CCOCC2)C1 (stereo unspecified) 1.78%
Cc1cnn(CCC(=O)NC2CCN(c3ccc(=O)n(C)n3)CC2)c1 -0.418%
CCc1cn(C[C@H](NC(=O)C2CCCC2)C(=O)O)c(=O)[nH]c1=O -9.31% [at 57.5 µM]
COc1cccc(CN2CCC(Oc3ccc(-c4noc(C5CC5)n4)cc3)C2)c1 (stereo unspecified) 0.662%
CN1CCN(C(=O)N2CCC3(CCCN(C4CCOCC4)C3=O)C2)CC1 (stereo unspecified) -0.0909%
Cn1cnc([S+](=O)([O-])N2CCN(C(=O)N3CC4CC(C3)[C@H]3CCCC(=O)N3C4)CC2)c1 (stereo partly specified) 1.83%
CCO[C@H]1CN(Cc2cnc(SCc3ccccc3)nc2)C[C@@H]1O 4.65%
C[C@@H]1CN(Cc2cc(C(N)=O)oc2C(C)(C)C)CC[C@@]1(O)C1CCC1 1.66%
COc1ccc(CN2CCOC[C@H]2c2ncc(-c3cccnc3)[nH]2)cc1 3.6% [at 57.5 µM]
Cc1ccc([C@@H]2CN(C(=O)CN3CCOC3=O)C[C@H]2NC(=O)C2CC2)cc1 -1.88%
O=C(c1ccoc1)N1CCC2(CC1)CC(CO)N(C(=O)c1ccccc1)C2 (stereo unspecified) 6.66%
C=CCNC(=O)c1cnn2c1CN(C(=O)OCc1ccccc1)CC2 1.77%
Cc1ccc(C(=O)N[C@H]2CO[C@H]3[C@@H]2OC[C@@H]3n2cc(-c3ccccc3)nn2)cc1 1.92% [at 57.5 µM]
COC(=O)NC1CCCN(Cc2ccc(-c3cncnc3)cc2)C1 (stereo unspecified) 4.69% [at 57.5 µM]
Cn1nc(C2CCCC2)cc1NC(=O)C1CC1 -6.67% [at 57.5 µM]
CCc1nc(NC2CCCC2)ncc1C(=O)O 6.04%
COCc1nc(-c2cccc(NC(=O)CC[C@H]3NC(=O)c4ccccc4NC3=O)c2)n[nH]1 -1.17%
Cc1cnc(C(=O)N[C@@H]2CCC[C@@H]2C(=O)NCc2cc(F)ccc2F)cn1 2.67%
OC1(CN2CCN(CCc3ccccn3)CC2)CCCNC1 (stereo unspecified) 54.2%
CNC(=O)c1cc[nH]c1C1CCCN(Cc2ccc3c(c2)CCO3)C1 (stereo unspecified) 15.5%
Cn1nccc1C(=O)N1C[C@@H](F)C[C@H]1C(=O)N1CCCCC1 1.31%
Cn1cccc1C(=O)N[C@H]1C[C@@H]2C(=O)N[C@H]3CCN(C(=O)Cc4cccs4)[C@@H]3C(=O)N2C1 1.62%
CN(Cc1cn(C)c2ccccc12)C1CCc2nn(CC3CC3)c(=O)n2CC1 (stereo unspecified) -1.91%
COc1cccc(-c2ccc(CN3CCCC3C(=O)N3CCN(c4ncccn4)CC3)cc2)c1 (stereo unspecified) 2.74%
CNCCN1C(=O)CC[C@H]2CN(C(=O)COc3cccnc3)CC[C@H]21 -1.29%
NC(=O)CN1CC2(CCC1=O)CCN(C[C@@H](O)CO)CC2 -1.59%
c1ccc(Nc2cc3c(cn2)NCCN(Cc2ccccn2)C3)cc1 15.7% [at 57.5 µM]
CCN1C(=O)Cc2cc(C(=O)NCc3c(C)cc(C)cc3C)ccc21 4.54%
Cc1ccc(CN2CC[C@H](c3nc4cc(C)ccc4o3)C2)cc1 4.4% [at 57.5 µM]
CCN(CC)C(=O)c1cc2c(s1)CCC(C(=O)N1CCN(c3ccccn3)CC1)C2 (stereo unspecified) 16.9%
COc1ccccc1OCCN1C(=O)C2(CCOCC2)CC1c1nnnn1C(C)(C)C (stereo unspecified) 4.52%
Cc1cnc(CCN)n1Cc1ccccc1 -1.12%
CC(C)n1nc(OC(C)(C)C(=O)Nc2ccccn2)c2cc(CN3CCOCC3)ccc21 2.09% [at 57.5 µM]
CC(=O)N[C@@H]1CN(C(=O)CCc2c[nH]c3ccccc23)C[C@H]1CO 0.334%
Cn1ncc2c(NCCc3nnc(N)s3)nc(-c3ccncc3)nc21 0.0205%
CN1CCNC(=O)C1CC(=O)O (stereo unspecified) 12.9%
COc1ccc(CN2CCN(C3CCN(c4ccccc4)CC3)CC2CCO)cc1C (stereo unspecified) -1.42%
Cc1onc(-c2cnn(C)c2NCc2ccc(C#N)cc2)c1C(=O)N1CCCC1 0.853% [at 57.5 µM]
O=S(=O)(c1ccccc1F)N1CCC(CCc2nc(C3CCOCC3)no2)CC1 28.6%
CCCS(=O)(=O)N1CCCC(c2[nH]ccc2C(N)=O)C1 (stereo unspecified) 0.265%
COc1ccc(Cl)cc1C(=O)N1CCC2(CC1)CN(C)CCN2C -1.47%
O=C(c1nc(-c2cccnc2)c2ccccn12)N1CCOCC1 13.2% [at 57.5 µM]
COc1ccc(CN2CC(c3nc(Cc4cccnc4)no3)C2)c(OC)c1 17.3%
CCc1nc(-c2c3n(c(=O)n(CC(=O)Nc4cc(C)on4)c2=O)CCCC3)no1 3.96%
O=C(NC[C@H]1OC[C@@H](NC2CCC2)[C@@H]1O)N1CCOCC1 -10.1% [at 57.5 µM]
CCn1nc(CC(C)C)cc1C(=O)N(C)Cc1cccc(-n2cccn2)c1 -7.67%
COCC(=O)NC1CCC12CCN(C(=O)c1ccc3ccccc3n1)CC2 (stereo unspecified) 45.7%
CNc1cccnc1OC1CCN(S(=O)(=O)c2ccc3c(c2)CCC3)C1 (stereo unspecified) 11.7%
CC(C)c1nnc(C2CN(C(=O)Cc3ccccc3Cl)CC23CCOCC3)o1 (stereo unspecified) -5.97%
CC(C)CC(=O)N1CCCCCC1c1nc(-c2ccncc2)no1 (stereo unspecified) 8.06%
CCN(CC)Cc1cccc(NS(=O)(=O)NCc2ccccc2)c1 3.39%
COc1ccc(C(=O)N[C@@H]2CN(C(=O)Nc3cccc(C(F)(F)F)c3)CCC[C@H]2O)cc1 4.38%
Cc1noc(-c2ccccc2Cl)c1C(=O)NCCCc1ccccc1 5.18%
O=C1CCCCC(C(=O)N2CC=C(c3ccccc3)CC2)N1 (stereo unspecified) 3.49%

Five compounds from above, arranged by heavy-atom count, rising:
Activity % (negative = inhibition), inactive:
CN1CCNC(=O)C1CC(=O)O (stereo unspecified) 12.9%
CCN(CC)Cc1cccc(NS(=O)(=O)NCc2ccccc2)c1 3.39%
Cn1ncc2c(NCCc3nnc(N)s3)nc(-c3ccncc3)nc21 0.0205%
COc1cccc(CN2CCC(Oc3ccc(-c4noc(C5CC5)n4)cc3)C2)c1 (stereo unspecified) 0.662%
Cc1ccc([S+](=O)([O-])NCCNC(=O)c2ccc(-c3cccc(C(F)(F)F)c3)cc2)cc1 -3.31%
